Patent US20160022556A1, “1,5-ANHYDRO-D-GLUCITOL-CONTAINING COLLAGEN PRODUCTION ACCELERATOR” (NATIONAL UNIVERSITY CORPORATION UNIVERSITY OF TOYOMA, priority 2013, published 2016)

Test system: normal human fibroblasts
Experiment: Type I collagen synthesis of normal human fibroblasts (ELISA of culture supernatant; protein by BCA method)
Assay type: cell-based
Conditions: 24-hour culture, n = 6, untreated control 9.38 ± 0.21
Protocol: The action of 1,5-AG on the synthesis of type I collagen of dermal fibroblasts is evaluated. Specifically, normal human fibroblasts were spread on a 96-well microplate using Dulbecco's modified eagle medium (DMEM) containing 0.5% fetal bovine serum (FBS). The fibroblasts were cultured at 37° C. for 24 hours, and thereafter the medium was exchanged with a 0.5% FBS-containing DMEM containing a given concentration of samples. As a positive control (P.C.), the same treatment was carried out with magnesium ascorbyl phosphate. After the 24-hour culture in the sample-containing medium, the culture supernatant was collected and subjected to ELISA. Also, the amount of protein was measured in accordance with bicinchoninic acid (BCA) method with PIERCE (manufactured by Pierce Biotechnology Inc.).
The culture supernatant and the collagen solutions for calibration curve were each dispensed in each well of high-adsorbent ELISA plate, and allowed to coat at 4° C. over one day and night. Thereafter, the coated plate was blocked at 37° C. for 1 hour with a 1% bovine serum albumin (BSA) solution. […] Next, 0.3 mg/mL of phosphate-citrate buffer (0.1 M, pH 4.0) containing 2,2′-azinobis(3-ethylbenzothiazoline-6-sulfonic acid)diammonium salt (ABTS) and a 0.03% hydrogen peroxide was added to each well and allowed to react for 20 minutes, and the absorbance of the reaction mixture was measured at 405 nm with a microplate reader.
The amount of the collagen in the culture supernatant was calculated from the calibration curve prepared from commercially available collagen. By dividing the amount of collagen in the medium by the amount of proteins in all the cells, the amount of collagen synthesized per unit protein amount was calculated. The amount of collagen synthesized at each concentration was subjected to a significance test using a Student-t test, and a difference with an untreated control was evaluated.

In the case of OC[C@H]1OC[C@H](O)[C@@H](O)[C@@H]1O [1,5-AG, 1,5-anhydro-D-glucitol], the “Amount of Protein, Mean S.D.” value (313 μg/mL sample) was 9.38 ± 0.44 μg/well, the “Amount of Protein, Mean S.D.” value (625 μg/mL sample) was 9.18 ± 0.46 μg/well and the “Amount of Protein, Mean S.D.” value (1250 μg/mL sample) was 9.09 ± 0.31 μg/well.
